Laboratory results reported in patent publication US7235626B1, “Structured peptide scaffold for displaying turn libraries on phage” (Genentech, Inc., priority 1999, dated 2007).

Experiment: Cysteine effective concentration (Ceff) measurement, thiol-disulfide equilibrium relative to glutathione
Type: physicochemical
Details: Hammett plot slope
Procedure: Cysteine Effective Concentration Measurements. Glutathione stock solutions were prepared by mixing 3 volumes of 0.2 M reduced glutathione (GSH) with 1 volume of 0.1 M oxidized glutatione (GSSG). Aliquots were stored at −80° C. and were stable for several months; use of a single batch eliminated any error in ΔΔG values that might arise from variability of total glutathione concentration. Thiol-disulfide equilibria were established by mixing 50 μL peptide stock (approximately 3 mM in water) with 50 μL glutathione stock, deoxygenating the acidic solution with vacuum/argon cycles from a Firestone valve, then adding 300 μL of deoxygenated buffer by syringe (0.2 M tris, pH 8.0; 1 mM EDTA; 67 mM tris base to titrate glutathione), followed by further deoxygenation of the mixture. The final pH of all reaction mixtures was 8.10±0.05. Solutions were stirred under argon and maintained at 20° C. in a water bath. After 1.5 h, successive aliquots (100 μL) were removed with a gastight syringe, immediately quenched by discharge into 400 μL of 3.1 mM HCl, and analyzed by HPLC with a minimum of delay. Ceff values were calculated from the molar ratios of the reduced and oxidized forms of peptide and glutathione (peak area ratios corrected for absorbance differences measured by HPLC), assuming 0.025 M total glutathione monomer (i.e., neglecting the minor amount (<1%) of glutathione present in mixed disulfides with peptide): Ceff=([peptideox]/[peptidered])×([GSH]^2/[GSSG]) [GSH]+2[GSSG]=0.025 M [GSSG]=0.025 M/{2+3.26 (GSH peak area/GSSG peak area)} [peptideox]/[peptidered]=equilibrium peak area ratio/absorbance ratio
Two or three samples from each reaction mixture were analyzed; there were no shifts in populations with time, and calculated Ceff values typically varied by less than 5% (equivalent to 30 cal/mol uncertainty in ΔΔG).

[1] = value in parentheses, tryptophan peptide as internal reference

Row | Substance | ρ, X3 vs. X8 (alanine peptide as reference) | ρ, leu vs. trp (alanine peptide as reference) | ρ, X3 vs. X8 [1] | ρ, leu vs. trp [1]
1 | Ac-C T W E G N K X T C-NH2 [W3X8] | 1.15 | 0.47 | 1.11 | 0.43
2 | Ac-C T L E G N K X T C-NH2 [L3X8] | 0.98 | – | 0.86 | –
3 | Ac-C T X E G N K W T C-NH2 [X3W8] | – | 0.43 | – | 0.32
